Experimental data as given in US7683097B2, “Topoisomerase inhibitors” (Propharmacon Inc., priority 2004, dated 2010).
At least one structure is not confirmed: it was looked up by name or label, or the drawing left a doubt.

Test system: pBR322 plasmid
Experiment: Gel retardation assay (electrophoretic mobility shift)
Type: binding
Text: Gel retardation assays were done on 320 and other biaryl/terphenyl acid compounds, to test for electrophoretic mobility shifts due to the presence of a substance that directly binds DNA.

With `CC[n+]1c(-c2ccccc2)c2cc(N)ccc2c2ccc(N)cc21` [EtBr, ethidium bromide] as the compound, how does the “mobility shift of pBR322 plasmid on gels” value read?
The value was “Mobility shifts were seen”.
